In test [1] the target is nucleolin (endogenous, THP-1 cells) (human (endogenous in THP-1)) (UniProt P19338). Kind of test: co-IP; whole-cell extracts of PMA stimulated THP-1 cells; anti-nucleolin or anti-Stat1 antibody coupled to protein A/G-agarose; Western blotting for Stat1 or nucleolin.
For test [2] the target is unchanged. The test can be described thus: co-IP; whole-cell extracts of non-stimulated THP-1 cells; anti-nucleolin or anti-Stat1 antibody coupled to protein A/G-agarose; Western blotting for Stat1 or nucleolin.
For test [3] the target is unchanged. The test can be described thus: cross-linking; cytosolic (S100) fractions of PMA stimulated THP-1 cells; 2 mM BS3, 30 min at RT, stopped with 50 mM Tris; then immunoprecipitation with anti-nucleolin or anti-Stat1 antibodies and Western blotting. (In western blotting, separated proteins are transferred to a membrane and probed.)
The target is the same in test [4]. The test can be described thus: native gel or EMSA; 32P-labeled GAS oligonucleotide; extracts of THP-1 cells treated with PMA for 24, 48 or 72 h; 30 min at 25°C; extracts pre-incubated with 3 µg of Stat1 polyclonal or nucleolin monoclonal antibodies (antibody competition/supershift).

Sequences of proteins named here, by UniProt entry; tags and fusion partners are left off.
UniProt P19338: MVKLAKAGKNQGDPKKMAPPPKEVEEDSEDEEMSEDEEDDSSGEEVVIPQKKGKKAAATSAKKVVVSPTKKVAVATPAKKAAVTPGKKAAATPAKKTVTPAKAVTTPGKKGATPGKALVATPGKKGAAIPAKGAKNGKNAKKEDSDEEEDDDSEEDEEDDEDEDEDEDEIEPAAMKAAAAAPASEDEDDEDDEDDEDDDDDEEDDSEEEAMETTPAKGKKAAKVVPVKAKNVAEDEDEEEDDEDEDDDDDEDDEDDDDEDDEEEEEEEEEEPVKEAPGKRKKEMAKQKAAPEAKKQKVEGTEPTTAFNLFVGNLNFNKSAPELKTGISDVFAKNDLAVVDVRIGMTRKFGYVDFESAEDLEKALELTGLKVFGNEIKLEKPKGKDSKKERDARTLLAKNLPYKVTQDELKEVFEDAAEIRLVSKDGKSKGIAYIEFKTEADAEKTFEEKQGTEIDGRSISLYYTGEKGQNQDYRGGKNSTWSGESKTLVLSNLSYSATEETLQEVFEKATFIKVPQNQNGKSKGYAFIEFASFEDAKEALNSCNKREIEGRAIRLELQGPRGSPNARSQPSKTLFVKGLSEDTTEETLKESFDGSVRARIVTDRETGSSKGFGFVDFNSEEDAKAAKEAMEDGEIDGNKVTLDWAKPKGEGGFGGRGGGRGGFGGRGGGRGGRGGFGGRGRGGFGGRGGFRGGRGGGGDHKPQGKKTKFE
UniProt P42224: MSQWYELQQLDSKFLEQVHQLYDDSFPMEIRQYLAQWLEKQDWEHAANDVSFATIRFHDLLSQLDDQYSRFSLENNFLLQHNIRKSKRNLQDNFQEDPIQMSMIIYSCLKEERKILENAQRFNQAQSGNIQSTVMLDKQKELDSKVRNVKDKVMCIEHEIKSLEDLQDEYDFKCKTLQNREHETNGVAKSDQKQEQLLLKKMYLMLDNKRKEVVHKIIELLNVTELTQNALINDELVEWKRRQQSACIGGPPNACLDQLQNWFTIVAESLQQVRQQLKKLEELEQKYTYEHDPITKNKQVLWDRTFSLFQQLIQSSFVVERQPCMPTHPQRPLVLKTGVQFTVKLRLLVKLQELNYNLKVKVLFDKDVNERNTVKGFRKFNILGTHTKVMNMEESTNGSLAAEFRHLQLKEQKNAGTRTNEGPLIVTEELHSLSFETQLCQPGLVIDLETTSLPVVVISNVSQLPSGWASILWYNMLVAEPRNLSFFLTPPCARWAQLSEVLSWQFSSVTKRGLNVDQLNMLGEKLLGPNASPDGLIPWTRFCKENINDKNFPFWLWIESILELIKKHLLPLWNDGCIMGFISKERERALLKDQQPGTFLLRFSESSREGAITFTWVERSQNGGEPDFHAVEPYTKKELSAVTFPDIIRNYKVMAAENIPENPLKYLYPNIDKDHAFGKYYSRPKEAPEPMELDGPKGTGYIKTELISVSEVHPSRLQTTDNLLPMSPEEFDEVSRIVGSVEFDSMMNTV

This passage reports binding results from paper PMC2788426.

Results are given in words; binding and its absence hold for the method and conditions named. For some of these results: In cells and extracts the contact can be indirect. Some entries that bind do so weakly or less than the wild type.

With “Stat1 (endogenous, human cells) (from UniProt P42224 1-750)”, the binding result in test [1] was “binds”; in test [2] it was “no binding (condition: unstimulated THP-1 cells (no PMA))”; in test [3], “binds”; in test [4], “binds”.
